From PubChem BioAssay AID1347076 (National Center for Advancing Translational Sciences (NCATS), 2019)
Screen size: about 400,000 compounds; about 13,000 (3.2%) were called active. This list was built around the results that the source calls inconclusive (neither active nor inactive); the mix of calls is not that of the screen. The call rests on the fitted dose curve; in most records, active means well fitted cell-killing curve with a large enough effect; inconclusive means small, poorly fitted or top-dose-only effect, or effect the other way; inactive means flat fitted curve, though single readings scatter. Potencies beside an inconclusive call are fits to weak or partial responses and may not hold up.
On the % scale 0 is the no-effect control and ±100 the full control effect; potency means the concentration at half of the fitted maximal effect.

Assay: qHTS assay for MDR1-selective chemotherapeutics: Primary screen using the drug-selected MDR subline cells KB-V1; further: nearly all actives have a fitted effect of over 60% in size
Details: KB-V1 MDR cells viability, CellTiter-Glo, 72 h; activity change, negative = cytotoxicity: at 46.1 µM (top of the series)
Procedure, shortened: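 Potencies derive from concentration-effect curves fitted to normalized luminescence (CellTiter-Glo) of KB-V1 cells treated for 72 h at 37 degrees C in phenol-red-free DMEM containing 10% FBS.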
For `COc1cccc(CNC(=O)c2ccc(-n3c(C)cc4c3CCCC4)cc2)c1`, the activity change, negative = cytotoxicity was inconclusive: -38.4% [cytotoxic].
With `CCOc1ccccc1N1CC(c2nc3ccccc3n2CCCOc2ccc(OC)cc2)CC1=O` (configuration not stated) the Potency was inconclusive: 29.1 µM [rising, single point].
With `CCOc1ccc(S(=O)(=O)NCCC(=O)N(C)Cc2ccc(C)o2)cc1` the activity change, negative = cytotoxicity was inconclusive: -15.8%.
For `CCCn1c(Nc2ccccc2C)nc2ccccc21`, the Potency was inconclusive: 29.1 µM [cytotoxic, single point].
For `CCOC(=O)c1c(-c2ccccc2)csc1NC(=O)CSc1nc(N)cc(N)n1`, the Potency was active: 3.26 µM.
For `CCOC(=O)c1cc(-c2sc(NC(=O)c3ccccc3)nc2C)n(Cc2ccccc2)n1`, the Potency was inconclusive: 25.9 µM [cytotoxic, partial curve, poor fit].
In the case of `CSc1nc(N2CCOCC2)nc2ccc(C)cc12`, the “activity change, negative = cytotoxicity” value is reported as inactive: -12.5%.
With `CC(C)(C)NC(=O)CCCSc1nc2ccccc2s1` the Potency was inconclusive: 29.1 µM [cytotoxic, single point].
For `O=C(c1ccc2ccccc2c1)C1CCCN(C(=O)c2cnccn2)C1` (configuration not stated), the Potency was inconclusive: 0.0058 µM [rising, full curve, poor fit].
For `CCc1ccccc1NC(=O)COCc1cc(-c2ccco2)on1`, the “activity change, negative = cytotoxicity” value was inactive: -11.7%.
With `O=C(NCCc1c[nH]c2ccccc12)c1ccc(Br)o1` the Potency was inconclusive: 23.1 µM [cytotoxic, partial curve, poor fit].
With `O=C1c2ccccc2/C(=C\c2ccc(Br)s2)N1c1ccccc1` the Potency was inconclusive: 29.1 µM [rising, single point].
For `CCCCNC(=O)C[C@@H]1C[C@@]2(C(=O)OCC)CCC=C2N(Cc2cccc3ccccc23)C1=O`, the Potency was inconclusive: 10.3 µM [cytotoxic, partial curve, poor fit].
For `O=C(Nc1ccc(N2CCOCC2)cc1)c1cc(-c2ccncc2)nc2ccccc12`, the Potency was inconclusive: 5.17 µM [rising, partial curve, poor fit].
With `CN1CCN(C(=O)c2cc3c(c(-c4cccc(C#CC(C)(C)O)c4)n2)[C@@H](CCO)N(S(=O)C(C)(C)C)C3)CC1` (some centres not stated) the Potency was inconclusive: 7.31 µM [rising, partial curve, poor fit].
For `CCn1ncc(/C=N/NC(=O)c2ccc3c(c2)OCO3)c1C`, the Potency was inconclusive: 29.1 µM [cytotoxic, single point].
In the case of `COc1ccccc1S(=O)(=O)Cc1ccc(C(=O)N2CCN(c3cc(Cl)ccc3C)CC2)o1`, the Potency is reported as active: 18.4 µM.
In the case of `Cc1ccc(-n2c(SCC(N)=O)nnc2-c2ccc(S(=O)(=O)N3CCCCC3)cc2)c(C)c1`, the Potency is reported as inconclusive: 29.1 µM [cytotoxic, partial curve, poor fit].
With `Cc1cc(C)c(Cn2c(=O)n(CCC(=O)NCc3ccc4c(c3)OCO4)c(=O)c3ccccc32)c(C)c1` the Potency was inconclusive: 29.1 µM [rising, single point].
For `CCO[C@H]1OC(C(=O)N2CCN(Cc3ccc4c(c3)OCO4)CC2)=C[C@@H](c2ccc(C(F)(F)F)cc2)[C@@H]1CCCO`, the Potency was inconclusive: 0.82 µM [cytotoxic, full curve, poor fit].
With `CC1(C(=O)Nc2ccc3c(c2)OCCO3)CCN1C(=O)C1(c2ccc(Cl)cc2)CCC1` (configuration not stated) the Potency was inconclusive: 29.1 µM [cytotoxic, single point].
For `C=CCNc1nc2cc(-c3ccc(C(=O)N4CCOCC4)cc3)sc2c(=O)n1C`, the “activity change, negative = cytotoxicity” value was inactive: -17.6%.
With `O=C(NC(=S)NCc1ccc(-c2nc3ccccc3s2)cc1)c1ccco1` the Potency was inconclusive: 18.4 µM [cytotoxic, single point].
With `O=C(NC(=S)Nc1ccc(S(=O)(=O)Nc2nccs2)cc1)c1ccc(F)cc1` the Potency was inconclusive: 7.31 µM [cytotoxic, partial curve, poor fit].
In the case of `Cc1ccc2occ(CC(=O)N(Cc3ccc(Cl)cc3)Cc3ccco3)c2c1`, the Potency is reported as inconclusive: 2.91 µM [cytotoxic, partial curve].
In the case of `COc1cc(NC(=O)c2ccc(N3CCCC3=O)cc2)cc(OC)c1`, the Potency is reported as inconclusive: 5.17 µM [cytotoxic, full curve].
In the case of `O=C(NC1(C(F)(F)F)NC(=O)N(c2ccc(F)cc2)C1=O)c1cccs1` (configuration not stated), the Potency is reported as inconclusive: 10.3 µM [cytotoxic, partial curve, poor fit].
In the case of `CC(=O)c1ccc(OCC(=O)NC2CCCCCC2)cc1`, the Potency is reported as inconclusive: 20.6 µM [cytotoxic, single point].
For `CCc1nnc(NC(=O)c2ccc(OC)c(S(=O)(=O)N3CCCC3)c2)s1`, the Potency was active: 20.6 µM.
With `Cc1noc(C)c1S(=O)(=O)N(C)C[C@H]1Oc2ccc(NS(=O)(=O)c3ccccc3)cc2C(=O)N([C@H](C)CO)C[C@@H]1C` the “activity change, negative = cytotoxicity” value was inactive: 0%.
In the case of `COc1ccc(NC(=O)c2nn(C)cc2[N+](=O)[O-])cc1`, the “activity change, negative = cytotoxicity” value is reported as inactive: -13%.
For `COc1ccc2c(c1)C(C1C(=O)CCCC1=O)c1ccccc1O2` (configuration not stated), the Potency was inconclusive: 5.17 µM [rising, partial curve].
With `Cc1onc(-c2ccccc2Cl)c1C(=O)NC(C)c1ccccc1` (configuration not stated) the “activity change, negative = cytotoxicity” value was inactive: 9.62%.
With `Cc1ccc2oc(-c3cccc(NC(=O)c4cccc5c(Cl)cccc45)c3)nc2c1` the Potency was inconclusive: 29.1 µM [rising, single point].
With `Cc1ccc(OCCC(=O)OCC(=O)NCCc2ccccc2)cc1` the “activity change, negative = cytotoxicity” value was inactive: 6.45%.
For `Cc1ccc(C2CC(C(F)F)n3ncc(C(=O)Nc4c(C)nn(Cc5c(F)cccc5Cl)c4C)c3N2)cc1` (configuration not stated), the “activity change, negative = cytotoxicity” value was inactive: -7.46%.
With `Cc1nc2sccn2c(=O)c1S(=O)(=O)N1CCN(c2cccc(C(F)(F)F)c2)CC1` the “activity change, negative = cytotoxicity” value was inactive: -25.2%.
In the case of `COc1ccccc1NC(=O)Nc1nc(CC(=O)Nc2ccc(F)c(F)c2)cs1`, the “activity change, negative = cytotoxicity” value is reported as inactive: -6.68%.
In the case of `Cc1c(C(=O)NCc2ccc3c(c2)OCO3)sc(=O)n1Cc1ccc(S(=O)(=O)N(C)C)cc1`, the Potency is reported as active: 2.91 µM.
With `Cn1cccc1/C=N/NC(=O)c1ccn[nH]1` the Potency was inconclusive: 29.1 µM [rising, single point].
In the case of `CCOC(=O)c1ccc(N2C(=O)CC(N3CCN(C/C=C/c4ccccc4)CC3)C2=O)cc1` (configuration not stated), the “activity change, negative = cytotoxicity” value is reported as inactive: 19.3%.
In the case of `COc1ccc(-c2c3c(nc4sc(C(=O)Nc5ccccc5)c(N)c24)CCC3)cc1`, the Potency is reported as inconclusive: 2.06 µM [cytotoxic, partial curve, poor fit].
With `CC(C)(C)c1ccc2c(c1)N(CC(=O)N1CCOCC1)C(=O)CO2` the “activity change, negative = cytotoxicity” value was inactive: 13.3%.
For `C[C@@H](CN1C2=NC[C@H](Cc3ccc(O)cc3)N2C[C@H]1Cc1ccc(O)cc1)NC(=O)CCC1CCCCC1`, the “activity change, negative = cytotoxicity” value was inactive: -8.25%.
In the case of `O=C(c1cccc(C(F)(F)F)c1)C1CCCN(C(=O)CCc2cnccn2)C1` (configuration not stated), the Potency is reported as inconclusive: 25.9 µM [cytotoxic, single point].
With `CCN(CC)CCNC(=O)c1[nH]c2ccc(OCc3ccccc3)cc2c1C` the Potency was inconclusive: 25.9 µM [cytotoxic, single point].
In the case of `Cc1cccc(N2CCN(C3=NC(=O)C(Cc4ccccc4)S3)CC2)c1` (configuration not stated), the Potency is reported as inconclusive: 18.4 µM [cytotoxic, partial curve, poor fit].
For `Cc1cc(N2CCN(c3cccc(C)c3C)CC2)nc(-c2ccccc2)n1`, the Potency was inconclusive: 14.6 µM [cytotoxic, partial curve].
With `O=C1C(=C2CCCCC2)SC(=S)N1Cc1ccco1` the Potency was inconclusive: 29.1 µM [cytotoxic, single point].
In the case of `CN(C)c1ccc(C(=O)Nc2ccc(S(=O)(=O)NC3=NCCCCC3)cc2)cc1`, the “activity change, negative = cytotoxicity” value is reported as inactive: -15.7%.
With `Cn1c(=O)c2c(-c3ccccc3)n(-c3cc([N+](=O)[O-])ccc3O)cc2n(C)c1=O` the “activity change, negative = cytotoxicity” value was inactive: 0.113%.
For `CCc1nnc(NC(=O)CCC(=O)NCc2ccc(C)cc2)s1`, the Potency was inconclusive: 29.1 µM [rising, single point].
For `O=C(CSc1n[nH]c(-c2ccco2)n1)Nc1ccccc1F`, the Potency was inconclusive: 29.1 µM [rising, single point].
With `O=C(NC1CC1(c1ccccc1)c1ccccc1)c1ccccc1` (configuration not stated) the Potency was active: 16.4 µM.
For `CCCC(=O)C1=C(O)C(C(=O)OC)C(C)(C)CC1=NCCc1ccccc1` (configuration not stated), the Potency was inconclusive: 1.46 µM [cytotoxic, full curve].
In the case of `COc1ccc(-c2csc(NC(=O)C3CC(=O)N(c4ccc5c(c4)OCCO5)C3)n2)cc1` (configuration not stated), the Potency is reported as active: 20.6 µM.
With `O=C(Nc1nc2ccccc2n1CCOc1ccccc1)c1ccco1` the Potency was inconclusive: 4.11 µM [cytotoxic, partial curve].
In the case of `CCOc1ccccc1NC(=O)CSc1ncc2c(n1)-c1ccccc1N(CC)S2(=O)=O`, the “activity change, negative = cytotoxicity” value is reported as inactive: 2.1%.
With `CCN1CCN(C(=O)CNC(=O)c2nn(-c3ccc(OC)cc3)c(=O)c3ccccc23)CC1` the Potency was inconclusive: 9.2 µM [cytotoxic, partial curve, poor fit].
With `C/C(=N\NC(=O)Cc1ccc(Cl)cc1)c1ccccn1` the Potency was inconclusive: 0.82 µM [cytotoxic, full curve].
With `Cc1cccc(-c2noc(CCCC(=O)NCC3CCCO3)n2)c1` (configuration not stated) the Potency was inconclusive: 23.1 µM [cytotoxic, single point].
For `CCC(C(=O)NNC(=O)c1cnccn1)c1ccccc1` (configuration not stated), the Potency was inconclusive: 8.2 µM [cytotoxic, partial curve, poor fit].
With `Cc1ccc(-n2ncc3c(NCCc4ccc(S(N)(=O)=O)cc4)ncnc32)cc1` the Potency was inconclusive: 23.1 µM [rising, single point].
For `CC(=O)N1c2ccccc2Oc2cc3ccccc3cc21`, the “activity change, negative = cytotoxicity” value was inactive: 17%.
For `C=CCSc1nnc(NC(=O)CSc2nc(CCC)cc(=O)[nH]2)s1`, the Potency was active: 20.6 µM.
With `Cc1cc(C)cc(NC(=O)CSc2nnc(-c3ccccc3Br)o2)c1` the Potency was inconclusive: 9.2 µM [cytotoxic, partial curve].
For `CCC(=O)Nc1ccc(N2CCCCC2)c(C(=O)Nc2ccc(OC)cc2)c1`, the Potency was inconclusive: 14.6 µM [cytotoxic, partial curve].
